According to the supplement of paper PMC7666118:
Some of the results follow.

Sequences of proteins named here, by UniProt entry; tags and fusion partners are left off. A change or cut given only in a name is not applied to a line headed by its entry.
UniProt Q9P021, whole entry: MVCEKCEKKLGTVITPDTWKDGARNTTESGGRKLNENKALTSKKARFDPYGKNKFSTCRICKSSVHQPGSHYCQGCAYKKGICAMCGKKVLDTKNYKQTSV
UniProt O75140: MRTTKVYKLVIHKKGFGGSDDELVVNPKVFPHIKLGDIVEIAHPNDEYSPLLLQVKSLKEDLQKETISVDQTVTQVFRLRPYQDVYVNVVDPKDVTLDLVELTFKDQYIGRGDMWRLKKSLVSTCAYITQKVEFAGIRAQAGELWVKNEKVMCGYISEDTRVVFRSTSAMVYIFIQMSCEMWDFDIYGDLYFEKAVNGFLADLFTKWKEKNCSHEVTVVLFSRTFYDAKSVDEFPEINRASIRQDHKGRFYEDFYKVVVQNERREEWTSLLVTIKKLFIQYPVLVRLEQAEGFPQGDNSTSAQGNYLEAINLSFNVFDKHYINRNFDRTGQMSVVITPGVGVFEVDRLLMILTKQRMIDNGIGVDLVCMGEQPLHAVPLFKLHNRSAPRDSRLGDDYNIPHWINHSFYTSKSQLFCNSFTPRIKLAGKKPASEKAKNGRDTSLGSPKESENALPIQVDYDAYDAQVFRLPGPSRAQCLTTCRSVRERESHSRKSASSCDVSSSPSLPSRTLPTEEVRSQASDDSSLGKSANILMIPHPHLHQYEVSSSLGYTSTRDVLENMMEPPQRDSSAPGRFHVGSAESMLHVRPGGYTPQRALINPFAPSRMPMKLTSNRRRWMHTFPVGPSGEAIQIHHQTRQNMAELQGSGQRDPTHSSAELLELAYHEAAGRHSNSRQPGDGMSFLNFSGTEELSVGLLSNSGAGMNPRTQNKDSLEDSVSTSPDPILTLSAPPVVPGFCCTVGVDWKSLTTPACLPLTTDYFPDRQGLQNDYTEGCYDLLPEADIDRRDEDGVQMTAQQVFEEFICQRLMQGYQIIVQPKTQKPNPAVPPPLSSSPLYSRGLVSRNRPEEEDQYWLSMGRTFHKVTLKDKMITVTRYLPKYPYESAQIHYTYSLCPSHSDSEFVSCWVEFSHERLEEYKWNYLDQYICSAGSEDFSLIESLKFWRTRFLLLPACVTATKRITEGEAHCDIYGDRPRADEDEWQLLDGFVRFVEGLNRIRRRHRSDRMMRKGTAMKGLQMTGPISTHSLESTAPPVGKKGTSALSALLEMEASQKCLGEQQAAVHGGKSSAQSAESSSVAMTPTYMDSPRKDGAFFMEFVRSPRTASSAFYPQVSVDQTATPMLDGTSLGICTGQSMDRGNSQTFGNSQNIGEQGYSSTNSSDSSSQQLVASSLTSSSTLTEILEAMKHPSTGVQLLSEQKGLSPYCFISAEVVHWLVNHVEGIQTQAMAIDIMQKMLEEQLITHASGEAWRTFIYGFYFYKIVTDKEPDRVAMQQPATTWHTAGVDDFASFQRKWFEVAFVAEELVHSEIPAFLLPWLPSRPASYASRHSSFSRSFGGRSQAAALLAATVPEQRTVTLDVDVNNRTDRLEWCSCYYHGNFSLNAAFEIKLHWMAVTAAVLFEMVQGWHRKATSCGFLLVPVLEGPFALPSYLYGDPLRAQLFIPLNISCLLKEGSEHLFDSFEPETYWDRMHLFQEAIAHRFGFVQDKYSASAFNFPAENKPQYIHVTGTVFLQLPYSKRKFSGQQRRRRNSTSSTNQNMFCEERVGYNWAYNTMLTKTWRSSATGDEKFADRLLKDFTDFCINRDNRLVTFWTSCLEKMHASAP
UniProt Q92499: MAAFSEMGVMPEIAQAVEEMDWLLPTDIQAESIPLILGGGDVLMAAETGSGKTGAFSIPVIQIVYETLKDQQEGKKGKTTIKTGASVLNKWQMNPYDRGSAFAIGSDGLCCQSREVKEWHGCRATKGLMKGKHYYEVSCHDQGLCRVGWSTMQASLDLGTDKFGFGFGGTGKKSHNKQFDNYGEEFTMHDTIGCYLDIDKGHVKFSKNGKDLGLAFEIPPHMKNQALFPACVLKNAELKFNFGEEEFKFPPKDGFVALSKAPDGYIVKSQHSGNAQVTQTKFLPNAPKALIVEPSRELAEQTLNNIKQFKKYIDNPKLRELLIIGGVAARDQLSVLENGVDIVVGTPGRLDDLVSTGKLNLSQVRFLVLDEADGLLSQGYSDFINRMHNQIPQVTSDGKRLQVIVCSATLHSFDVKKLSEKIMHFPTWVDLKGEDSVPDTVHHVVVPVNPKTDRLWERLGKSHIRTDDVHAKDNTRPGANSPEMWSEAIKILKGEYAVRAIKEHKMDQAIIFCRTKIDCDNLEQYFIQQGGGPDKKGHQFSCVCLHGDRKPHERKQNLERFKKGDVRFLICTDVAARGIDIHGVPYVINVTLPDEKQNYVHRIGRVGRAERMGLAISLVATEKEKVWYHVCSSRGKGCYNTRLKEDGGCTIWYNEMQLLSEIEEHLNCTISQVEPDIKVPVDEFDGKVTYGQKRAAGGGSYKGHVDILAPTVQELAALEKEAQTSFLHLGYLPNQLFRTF
UniProt Q9H4E7, whole entry: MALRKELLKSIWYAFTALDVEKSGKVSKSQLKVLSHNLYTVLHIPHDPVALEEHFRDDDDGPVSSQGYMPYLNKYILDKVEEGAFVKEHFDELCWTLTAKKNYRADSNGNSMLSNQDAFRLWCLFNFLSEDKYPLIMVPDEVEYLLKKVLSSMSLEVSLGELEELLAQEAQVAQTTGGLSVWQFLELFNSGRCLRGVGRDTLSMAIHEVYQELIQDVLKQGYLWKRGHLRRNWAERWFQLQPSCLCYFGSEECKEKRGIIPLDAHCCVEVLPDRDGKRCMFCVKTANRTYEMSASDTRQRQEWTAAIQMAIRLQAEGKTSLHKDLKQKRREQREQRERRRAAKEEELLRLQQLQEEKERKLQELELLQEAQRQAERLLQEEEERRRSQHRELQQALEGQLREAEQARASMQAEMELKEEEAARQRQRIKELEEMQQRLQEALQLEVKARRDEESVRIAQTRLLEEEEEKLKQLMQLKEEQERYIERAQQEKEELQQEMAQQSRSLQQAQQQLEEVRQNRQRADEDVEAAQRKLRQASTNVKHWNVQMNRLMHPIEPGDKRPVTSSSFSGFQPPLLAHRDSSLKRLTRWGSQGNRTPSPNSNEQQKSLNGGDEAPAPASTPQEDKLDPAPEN
UniProt Q8TB03: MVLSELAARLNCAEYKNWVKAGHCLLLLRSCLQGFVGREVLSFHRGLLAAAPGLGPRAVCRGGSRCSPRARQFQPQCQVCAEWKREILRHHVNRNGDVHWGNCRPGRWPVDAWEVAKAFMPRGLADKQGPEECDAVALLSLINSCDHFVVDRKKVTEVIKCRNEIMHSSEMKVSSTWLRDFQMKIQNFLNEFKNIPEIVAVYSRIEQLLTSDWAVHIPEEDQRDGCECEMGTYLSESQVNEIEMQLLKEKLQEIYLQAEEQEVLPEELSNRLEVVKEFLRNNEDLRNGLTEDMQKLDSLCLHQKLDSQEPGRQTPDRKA
UniProt Q9H2U1: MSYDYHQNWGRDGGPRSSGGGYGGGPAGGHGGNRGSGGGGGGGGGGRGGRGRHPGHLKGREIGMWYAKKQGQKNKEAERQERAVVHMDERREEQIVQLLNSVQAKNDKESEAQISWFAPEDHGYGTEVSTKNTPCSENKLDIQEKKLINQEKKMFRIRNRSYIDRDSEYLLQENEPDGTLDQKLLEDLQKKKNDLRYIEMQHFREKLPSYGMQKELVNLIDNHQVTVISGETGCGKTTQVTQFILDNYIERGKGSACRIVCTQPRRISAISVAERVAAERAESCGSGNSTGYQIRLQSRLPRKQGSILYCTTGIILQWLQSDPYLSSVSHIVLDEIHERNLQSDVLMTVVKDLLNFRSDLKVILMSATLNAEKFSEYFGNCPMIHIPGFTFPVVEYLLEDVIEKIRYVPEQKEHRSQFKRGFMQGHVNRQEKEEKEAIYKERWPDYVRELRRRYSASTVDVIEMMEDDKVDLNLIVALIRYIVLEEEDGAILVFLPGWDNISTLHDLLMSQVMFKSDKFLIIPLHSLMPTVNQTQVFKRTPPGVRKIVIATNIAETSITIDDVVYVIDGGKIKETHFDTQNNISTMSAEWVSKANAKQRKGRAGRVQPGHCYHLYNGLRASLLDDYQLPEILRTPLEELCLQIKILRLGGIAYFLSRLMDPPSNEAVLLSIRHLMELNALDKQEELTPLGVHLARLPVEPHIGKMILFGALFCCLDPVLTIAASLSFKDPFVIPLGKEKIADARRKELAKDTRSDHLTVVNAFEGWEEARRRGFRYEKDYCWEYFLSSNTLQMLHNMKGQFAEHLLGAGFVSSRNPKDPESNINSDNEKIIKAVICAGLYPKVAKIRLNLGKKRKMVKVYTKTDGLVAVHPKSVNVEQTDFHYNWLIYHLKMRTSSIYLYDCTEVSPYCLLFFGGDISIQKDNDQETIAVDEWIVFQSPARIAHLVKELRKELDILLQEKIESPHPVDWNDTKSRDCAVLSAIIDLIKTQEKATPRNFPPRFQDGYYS
UniProt O60888: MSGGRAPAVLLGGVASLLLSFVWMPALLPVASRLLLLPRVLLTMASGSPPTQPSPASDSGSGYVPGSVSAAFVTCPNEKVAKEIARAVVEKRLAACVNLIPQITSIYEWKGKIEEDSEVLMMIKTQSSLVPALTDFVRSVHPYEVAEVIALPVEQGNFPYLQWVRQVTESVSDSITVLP
UniProt O95319: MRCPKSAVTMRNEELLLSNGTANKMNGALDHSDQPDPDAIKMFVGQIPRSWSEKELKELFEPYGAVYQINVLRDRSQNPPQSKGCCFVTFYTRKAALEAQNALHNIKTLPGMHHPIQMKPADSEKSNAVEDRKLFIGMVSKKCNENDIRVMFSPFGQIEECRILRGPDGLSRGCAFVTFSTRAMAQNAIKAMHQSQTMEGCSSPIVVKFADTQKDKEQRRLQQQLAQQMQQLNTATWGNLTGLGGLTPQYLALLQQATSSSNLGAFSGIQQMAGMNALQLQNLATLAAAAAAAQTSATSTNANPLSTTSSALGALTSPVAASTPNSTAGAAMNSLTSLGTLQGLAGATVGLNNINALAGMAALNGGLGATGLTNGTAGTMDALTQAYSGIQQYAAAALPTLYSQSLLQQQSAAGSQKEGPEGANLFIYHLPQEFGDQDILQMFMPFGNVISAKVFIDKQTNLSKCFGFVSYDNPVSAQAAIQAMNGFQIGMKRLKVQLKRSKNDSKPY
UniProt P55060: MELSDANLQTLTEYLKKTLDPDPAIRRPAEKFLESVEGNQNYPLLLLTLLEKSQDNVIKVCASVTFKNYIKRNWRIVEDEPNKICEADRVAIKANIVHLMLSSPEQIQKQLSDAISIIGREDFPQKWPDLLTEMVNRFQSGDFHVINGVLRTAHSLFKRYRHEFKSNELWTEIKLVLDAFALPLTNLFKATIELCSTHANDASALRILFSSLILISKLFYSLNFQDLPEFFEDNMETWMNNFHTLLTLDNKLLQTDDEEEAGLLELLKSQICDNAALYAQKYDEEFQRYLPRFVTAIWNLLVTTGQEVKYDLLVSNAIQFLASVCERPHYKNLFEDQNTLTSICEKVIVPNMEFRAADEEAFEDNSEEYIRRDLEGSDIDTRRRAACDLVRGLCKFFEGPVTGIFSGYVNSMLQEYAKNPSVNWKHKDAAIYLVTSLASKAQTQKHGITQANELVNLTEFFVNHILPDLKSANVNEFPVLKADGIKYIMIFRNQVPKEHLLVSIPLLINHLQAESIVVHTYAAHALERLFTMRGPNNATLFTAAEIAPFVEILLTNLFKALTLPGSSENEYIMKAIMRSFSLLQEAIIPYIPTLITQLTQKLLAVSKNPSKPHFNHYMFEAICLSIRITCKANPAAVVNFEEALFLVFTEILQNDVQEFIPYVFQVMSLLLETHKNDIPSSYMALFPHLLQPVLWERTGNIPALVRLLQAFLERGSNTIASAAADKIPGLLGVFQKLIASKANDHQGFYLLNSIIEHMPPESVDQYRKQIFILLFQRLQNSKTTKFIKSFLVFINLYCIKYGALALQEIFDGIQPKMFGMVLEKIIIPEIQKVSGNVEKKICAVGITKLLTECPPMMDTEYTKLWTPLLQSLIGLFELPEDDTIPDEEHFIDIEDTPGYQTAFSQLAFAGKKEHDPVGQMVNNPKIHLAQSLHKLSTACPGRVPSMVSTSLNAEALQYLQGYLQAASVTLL
UniProt Q96DF8: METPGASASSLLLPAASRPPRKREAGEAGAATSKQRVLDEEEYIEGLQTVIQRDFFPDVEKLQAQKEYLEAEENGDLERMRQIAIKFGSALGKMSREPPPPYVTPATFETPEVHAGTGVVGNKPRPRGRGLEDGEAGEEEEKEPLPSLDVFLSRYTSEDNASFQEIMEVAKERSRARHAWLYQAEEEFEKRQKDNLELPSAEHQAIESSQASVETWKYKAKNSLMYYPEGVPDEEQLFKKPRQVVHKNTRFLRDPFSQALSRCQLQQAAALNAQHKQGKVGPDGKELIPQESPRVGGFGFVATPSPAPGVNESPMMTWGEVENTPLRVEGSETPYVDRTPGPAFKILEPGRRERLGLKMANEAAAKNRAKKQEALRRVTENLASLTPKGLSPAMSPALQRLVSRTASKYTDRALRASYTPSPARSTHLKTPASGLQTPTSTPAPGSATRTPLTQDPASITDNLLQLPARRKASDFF

These targets were tested with COc1ccc(Cn2ccc3ccc(C(=O)NO)cc32)cc1 (assay: dose-dependent thermal stabilisation call (2D-TPP, DLPTP, 10% FDR) (binary (1 = stabilised)); higher = stabilised by the compound). Conditions: system: HL-60 intact cells; concentration range 0.04-10 µM.

**Q.** For CRIPT (UniProt Q9P021), which “dose-dependent thermal stabilisation call” value is on record?
**A.** Its value is inactive: 0.

**Q.** How did the “dose-dependent thermal stabilisation call” value turn out when COX5A (UniProt P20674) was run?
**A.** Its value is inactive: 0.

**Q.** CTSZ (UniProt Q9UBR2) was tested. Which “dose-dependent thermal stabilisation call” value did it give?
**A.** Its value is inactive: 0.

**Q.** How did the “dose-dependent thermal stabilisation call” value turn out when DCTN3 (UniProt O75935) was run?
**A.** The value was active: 1.

**Q.** Which “dose-dependent thermal stabilisation call” value does the source give for DEPDC5 (UniProt O75140) here?
**A.** Its value is inactive: 0.

**Q.** Which “dose-dependent thermal stabilisation call” value does the source give for DDB1 (UniProt Q16531) here?
**A.** The value was inactive: 0.

**Q.** For CRNKL1 (UniProt Q9BZJ0), which “dose-dependent thermal stabilisation call” value is on record?
**A.** Its value is inactive: 0.

**Q.** Which “dose-dependent thermal stabilisation call” value does the source give for DHX30 (UniProt Q7L2E3) here?
**A.** Its value is inactive: 0.

**Q.** With DHX38 (UniProt Q92620) as the target, how does the “dose-dependent thermal stabilisation call” value read?
**A.** Its value is inactive: 0.

**Q.** CSTA (UniProt P01040) was tested. Which “dose-dependent thermal stabilisation call” value did it give?
**A.** Its value is inactive: 0.

**Q.** For CYFIP2 (UniProt Q96F07), which “dose-dependent thermal stabilisation call” value is on record?
**A.** Its value is inactive: 0.

**Q.** DCTN5 (UniProt Q9BTE1) was tested. Which “dose-dependent thermal stabilisation call” value did it give?
**A.** The value was inactive: 0.

**Q.** Which “dose-dependent thermal stabilisation call” value does the source give for CRYZ (UniProt Q08257) here?
**A.** Its value is inactive: 0.

**Q.** Which “dose-dependent thermal stabilisation call” value does the source give for DENND1C (UniProt Q8IV53) here?
**A.** The value was inactive: 0.

**Q.** Which “dose-dependent thermal stabilisation call” value does the source give for DGKA (UniProt P23743) here?
**A.** Its value is inactive: 0.

**Q.** For COMT (UniProt P21964), which “dose-dependent thermal stabilisation call” value is on record?
**A.** The value was active: 1.

**Q.** How did the “dose-dependent thermal stabilisation call” value turn out when COPS2 (UniProt P61201) was run?
**A.** The value was inactive: 0.

**Q.** DDX10 (UniProt Q13206) was tested. Which “dose-dependent thermal stabilisation call” value did it give?
**A.** Its value is inactive: 0.

**Q.** For DHX57 (UniProt Q6P158), which “dose-dependent thermal stabilisation call” value is on record?
**A.** Its value is inactive: 0.

**Q.** DDX1 (UniProt Q92499) was tested. Which “dose-dependent thermal stabilisation call” value did it give?
**A.** Its value is inactive: 0.

**Q.** Which “dose-dependent thermal stabilisation call” value does the source give for CUL2 (UniProt Q13617) here?
**A.** Its value is inactive: 0.

**Q.** CRLF3 (UniProt Q8IUI8) was tested. Which “dose-dependent thermal stabilisation call” value did it give?
**A.** The value was inactive: 0.

**Q.** Which “dose-dependent thermal stabilisation call” value does the source give for DEF6 (UniProt Q9H4E7) here?
**A.** The value was inactive: 0.

**Q.** With CXORF38 (UniProt Q8TB03) as the target, how does the “dose-dependent thermal stabilisation call” value read?
**A.** Its value is inactive: 0.

**Q.** DDHD2 (UniProt O94830) was tested. Which “dose-dependent thermal stabilisation call” value did it give?
**A.** The value was inactive: 0.

**Q.** For CP110 (UniProt O43303), which “dose-dependent thermal stabilisation call” value is on record?
**A.** Its value is inactive: 0.

**Q.** With CTDP1 (UniProt Q9Y5B0) as the target, how does the “dose-dependent thermal stabilisation call” value read?
**A.** Its value is inactive: 0.

**Q.** For DHX36 (UniProt Q9H2U1), which “dose-dependent thermal stabilisation call” value is on record?
**A.** The value was inactive: 0.

**Q.** For CUTA (UniProt O60888), which “dose-dependent thermal stabilisation call” value is on record?
**A.** The value was inactive: 0.

**Q.** For CUGBP2 (UniProt O95319), which “dose-dependent thermal stabilisation call” value is on record?
**A.** The value was inactive: 0.

**Q.** With CREB1 (UniProt P16220) as the target, how does the “dose-dependent thermal stabilisation call” value read?
**A.** Its value is inactive: 0.

**Q.** DENND2C (UniProt Q68D51) was tested. Which “dose-dependent thermal stabilisation call” value did it give?
**A.** The value was inactive: 0.

**Q.** Which “dose-dependent thermal stabilisation call” value does the source give for CRYZL1 (UniProt O95825) here?
**A.** Its value is inactive: 0.

**Q.** How did the “dose-dependent thermal stabilisation call” value turn out when COPG (UniProt Q9Y678) was run?
**A.** Its value is inactive: 0.

**Q.** How did the “dose-dependent thermal stabilisation call” value turn out when CSE1L (UniProt P55060) was run?
**A.** The value was inactive: 0.

**Q.** For DGCR14 (UniProt Q96DF8), which “dose-dependent thermal stabilisation call” value is on record?
**A.** Its value is inactive: 0.

**Q.** COX6B1 (UniProt P14854) was tested. Which “dose-dependent thermal stabilisation call” value did it give?
**A.** Its value is inactive: 0.
